# Reference: the supplement of paper PMC10849652
# Chains of the proteins cited; added tags and fusions are not shown. Lines headed by an entry give the natural chain unless they say otherwise; changes in a name come on top.
# UniProt O75915: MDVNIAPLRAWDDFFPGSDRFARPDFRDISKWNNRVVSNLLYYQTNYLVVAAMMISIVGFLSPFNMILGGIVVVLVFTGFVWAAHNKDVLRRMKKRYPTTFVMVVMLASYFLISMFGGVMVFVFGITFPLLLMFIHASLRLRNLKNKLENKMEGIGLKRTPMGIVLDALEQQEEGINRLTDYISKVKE
# UniProt Q9NZN5: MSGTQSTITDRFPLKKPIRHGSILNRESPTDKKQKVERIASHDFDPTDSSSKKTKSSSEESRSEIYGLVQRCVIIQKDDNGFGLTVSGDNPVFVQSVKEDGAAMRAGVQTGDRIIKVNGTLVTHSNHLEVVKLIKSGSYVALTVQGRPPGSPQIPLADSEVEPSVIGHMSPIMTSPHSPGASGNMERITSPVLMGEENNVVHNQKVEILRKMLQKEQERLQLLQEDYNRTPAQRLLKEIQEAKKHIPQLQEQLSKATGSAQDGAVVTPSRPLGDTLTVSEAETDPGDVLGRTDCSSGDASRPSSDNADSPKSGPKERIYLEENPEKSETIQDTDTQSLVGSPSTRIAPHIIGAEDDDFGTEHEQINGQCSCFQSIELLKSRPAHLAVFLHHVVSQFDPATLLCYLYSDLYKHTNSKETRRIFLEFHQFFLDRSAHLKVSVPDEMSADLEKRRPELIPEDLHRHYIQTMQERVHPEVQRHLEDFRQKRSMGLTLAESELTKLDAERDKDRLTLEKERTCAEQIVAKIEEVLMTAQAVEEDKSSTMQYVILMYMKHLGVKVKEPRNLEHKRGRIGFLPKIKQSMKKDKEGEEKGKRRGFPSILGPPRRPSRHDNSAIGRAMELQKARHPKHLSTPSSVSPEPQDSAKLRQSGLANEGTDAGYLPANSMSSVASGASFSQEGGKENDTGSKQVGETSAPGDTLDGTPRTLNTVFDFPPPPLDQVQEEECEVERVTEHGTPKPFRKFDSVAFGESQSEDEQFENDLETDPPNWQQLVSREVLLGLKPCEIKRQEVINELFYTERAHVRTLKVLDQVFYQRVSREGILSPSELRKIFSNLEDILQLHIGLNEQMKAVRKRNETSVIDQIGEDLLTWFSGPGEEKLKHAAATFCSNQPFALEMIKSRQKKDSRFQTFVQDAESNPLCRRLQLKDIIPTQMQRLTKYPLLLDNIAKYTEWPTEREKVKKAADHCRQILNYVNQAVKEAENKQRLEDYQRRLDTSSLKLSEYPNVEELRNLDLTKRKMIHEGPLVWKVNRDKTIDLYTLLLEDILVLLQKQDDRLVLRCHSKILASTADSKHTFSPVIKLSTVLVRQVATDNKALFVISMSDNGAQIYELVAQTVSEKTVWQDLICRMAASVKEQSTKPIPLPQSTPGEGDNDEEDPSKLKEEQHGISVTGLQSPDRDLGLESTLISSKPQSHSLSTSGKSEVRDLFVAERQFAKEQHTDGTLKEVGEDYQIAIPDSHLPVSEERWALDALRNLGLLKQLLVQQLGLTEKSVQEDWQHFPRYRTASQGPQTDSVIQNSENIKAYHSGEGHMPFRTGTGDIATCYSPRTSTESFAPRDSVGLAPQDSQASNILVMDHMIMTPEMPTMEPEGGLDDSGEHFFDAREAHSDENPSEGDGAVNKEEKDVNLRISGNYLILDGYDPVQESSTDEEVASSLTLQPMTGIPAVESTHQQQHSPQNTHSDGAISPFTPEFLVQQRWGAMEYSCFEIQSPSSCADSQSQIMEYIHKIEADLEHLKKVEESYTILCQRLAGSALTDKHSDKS
# UniProt Q8TDY4: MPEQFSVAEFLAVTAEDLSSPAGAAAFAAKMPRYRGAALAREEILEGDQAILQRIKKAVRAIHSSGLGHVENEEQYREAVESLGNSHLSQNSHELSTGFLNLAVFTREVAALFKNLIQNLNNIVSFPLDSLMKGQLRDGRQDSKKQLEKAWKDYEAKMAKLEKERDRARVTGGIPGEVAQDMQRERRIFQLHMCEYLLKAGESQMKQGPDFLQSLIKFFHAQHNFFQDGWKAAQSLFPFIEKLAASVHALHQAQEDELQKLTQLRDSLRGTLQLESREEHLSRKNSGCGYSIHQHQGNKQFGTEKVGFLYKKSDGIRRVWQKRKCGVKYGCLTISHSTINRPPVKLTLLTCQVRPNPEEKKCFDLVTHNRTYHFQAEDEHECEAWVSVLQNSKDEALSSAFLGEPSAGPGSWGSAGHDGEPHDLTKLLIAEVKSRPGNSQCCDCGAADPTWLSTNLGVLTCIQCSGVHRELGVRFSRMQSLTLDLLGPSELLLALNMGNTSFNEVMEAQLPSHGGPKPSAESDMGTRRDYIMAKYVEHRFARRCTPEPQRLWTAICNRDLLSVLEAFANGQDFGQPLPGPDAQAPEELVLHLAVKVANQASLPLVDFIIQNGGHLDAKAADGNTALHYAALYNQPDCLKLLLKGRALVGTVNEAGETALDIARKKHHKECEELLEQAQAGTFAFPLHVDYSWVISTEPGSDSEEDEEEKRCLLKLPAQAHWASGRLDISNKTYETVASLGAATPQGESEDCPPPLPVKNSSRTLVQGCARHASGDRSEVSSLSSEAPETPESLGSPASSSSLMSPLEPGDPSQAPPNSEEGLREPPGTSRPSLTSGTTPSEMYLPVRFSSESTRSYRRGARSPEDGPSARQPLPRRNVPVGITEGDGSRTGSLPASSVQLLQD
# UniProt P52565: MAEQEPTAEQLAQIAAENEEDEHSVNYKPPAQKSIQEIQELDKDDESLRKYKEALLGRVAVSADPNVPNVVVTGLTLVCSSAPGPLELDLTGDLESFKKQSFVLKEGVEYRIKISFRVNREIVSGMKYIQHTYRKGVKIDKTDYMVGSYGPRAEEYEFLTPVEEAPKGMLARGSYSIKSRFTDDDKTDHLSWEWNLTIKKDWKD
# UniProt Q8IUX4: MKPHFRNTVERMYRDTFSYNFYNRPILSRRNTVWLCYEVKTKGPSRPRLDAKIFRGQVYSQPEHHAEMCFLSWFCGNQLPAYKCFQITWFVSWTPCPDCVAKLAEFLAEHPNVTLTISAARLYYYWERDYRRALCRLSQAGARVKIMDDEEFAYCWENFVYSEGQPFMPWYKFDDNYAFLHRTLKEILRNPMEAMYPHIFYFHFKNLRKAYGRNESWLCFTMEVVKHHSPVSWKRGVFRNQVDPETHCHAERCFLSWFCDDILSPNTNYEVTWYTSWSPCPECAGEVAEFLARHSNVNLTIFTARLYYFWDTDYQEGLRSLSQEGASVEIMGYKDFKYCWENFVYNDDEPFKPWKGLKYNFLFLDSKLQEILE
# UniProt P48444: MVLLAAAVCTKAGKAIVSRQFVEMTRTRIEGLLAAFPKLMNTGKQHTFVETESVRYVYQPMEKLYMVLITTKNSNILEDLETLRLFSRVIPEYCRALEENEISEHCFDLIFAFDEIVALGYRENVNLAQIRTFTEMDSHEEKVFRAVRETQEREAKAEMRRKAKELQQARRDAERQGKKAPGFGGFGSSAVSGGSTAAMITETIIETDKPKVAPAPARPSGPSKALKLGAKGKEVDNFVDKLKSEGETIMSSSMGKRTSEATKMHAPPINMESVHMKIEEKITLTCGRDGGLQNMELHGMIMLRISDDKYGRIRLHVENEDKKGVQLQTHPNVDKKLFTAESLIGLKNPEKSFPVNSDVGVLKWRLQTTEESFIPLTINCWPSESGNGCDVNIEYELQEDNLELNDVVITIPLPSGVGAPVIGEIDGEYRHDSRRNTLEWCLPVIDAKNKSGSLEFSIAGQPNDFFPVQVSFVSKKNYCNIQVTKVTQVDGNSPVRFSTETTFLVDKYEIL
# UniProt Q6ZSZ5: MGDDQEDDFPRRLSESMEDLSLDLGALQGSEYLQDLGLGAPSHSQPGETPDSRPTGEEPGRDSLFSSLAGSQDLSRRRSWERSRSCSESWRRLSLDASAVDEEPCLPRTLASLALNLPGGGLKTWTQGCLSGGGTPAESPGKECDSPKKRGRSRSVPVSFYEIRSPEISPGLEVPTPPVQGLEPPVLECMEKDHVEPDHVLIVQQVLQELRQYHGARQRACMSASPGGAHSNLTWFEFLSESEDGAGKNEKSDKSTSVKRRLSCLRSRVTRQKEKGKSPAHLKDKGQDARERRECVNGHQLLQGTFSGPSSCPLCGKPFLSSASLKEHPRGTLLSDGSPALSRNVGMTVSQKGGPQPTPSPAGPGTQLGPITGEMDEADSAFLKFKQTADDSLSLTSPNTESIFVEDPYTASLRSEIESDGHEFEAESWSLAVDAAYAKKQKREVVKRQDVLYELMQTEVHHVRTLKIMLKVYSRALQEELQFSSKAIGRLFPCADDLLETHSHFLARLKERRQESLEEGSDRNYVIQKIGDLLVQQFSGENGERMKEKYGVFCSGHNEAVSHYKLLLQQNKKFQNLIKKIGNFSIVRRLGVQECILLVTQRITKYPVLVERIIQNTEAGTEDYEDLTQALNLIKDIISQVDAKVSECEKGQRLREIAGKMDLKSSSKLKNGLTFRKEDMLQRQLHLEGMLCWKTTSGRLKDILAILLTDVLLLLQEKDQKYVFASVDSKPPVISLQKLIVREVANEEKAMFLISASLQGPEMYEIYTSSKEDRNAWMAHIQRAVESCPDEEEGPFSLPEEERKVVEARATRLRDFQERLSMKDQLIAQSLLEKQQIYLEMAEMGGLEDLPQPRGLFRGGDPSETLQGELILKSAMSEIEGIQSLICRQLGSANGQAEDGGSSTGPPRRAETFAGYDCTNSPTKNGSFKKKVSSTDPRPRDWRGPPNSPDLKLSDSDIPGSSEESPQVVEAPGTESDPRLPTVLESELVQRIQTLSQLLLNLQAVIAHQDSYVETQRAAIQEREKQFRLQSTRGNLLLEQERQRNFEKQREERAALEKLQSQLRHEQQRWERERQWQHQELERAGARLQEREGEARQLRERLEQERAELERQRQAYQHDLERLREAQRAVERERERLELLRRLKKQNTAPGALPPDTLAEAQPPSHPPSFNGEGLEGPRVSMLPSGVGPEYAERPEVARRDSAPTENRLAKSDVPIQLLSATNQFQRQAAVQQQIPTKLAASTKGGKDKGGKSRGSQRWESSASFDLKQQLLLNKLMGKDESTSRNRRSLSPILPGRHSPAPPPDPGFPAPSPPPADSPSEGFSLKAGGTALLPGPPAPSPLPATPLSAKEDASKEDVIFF
# UniProt Q9NRY4: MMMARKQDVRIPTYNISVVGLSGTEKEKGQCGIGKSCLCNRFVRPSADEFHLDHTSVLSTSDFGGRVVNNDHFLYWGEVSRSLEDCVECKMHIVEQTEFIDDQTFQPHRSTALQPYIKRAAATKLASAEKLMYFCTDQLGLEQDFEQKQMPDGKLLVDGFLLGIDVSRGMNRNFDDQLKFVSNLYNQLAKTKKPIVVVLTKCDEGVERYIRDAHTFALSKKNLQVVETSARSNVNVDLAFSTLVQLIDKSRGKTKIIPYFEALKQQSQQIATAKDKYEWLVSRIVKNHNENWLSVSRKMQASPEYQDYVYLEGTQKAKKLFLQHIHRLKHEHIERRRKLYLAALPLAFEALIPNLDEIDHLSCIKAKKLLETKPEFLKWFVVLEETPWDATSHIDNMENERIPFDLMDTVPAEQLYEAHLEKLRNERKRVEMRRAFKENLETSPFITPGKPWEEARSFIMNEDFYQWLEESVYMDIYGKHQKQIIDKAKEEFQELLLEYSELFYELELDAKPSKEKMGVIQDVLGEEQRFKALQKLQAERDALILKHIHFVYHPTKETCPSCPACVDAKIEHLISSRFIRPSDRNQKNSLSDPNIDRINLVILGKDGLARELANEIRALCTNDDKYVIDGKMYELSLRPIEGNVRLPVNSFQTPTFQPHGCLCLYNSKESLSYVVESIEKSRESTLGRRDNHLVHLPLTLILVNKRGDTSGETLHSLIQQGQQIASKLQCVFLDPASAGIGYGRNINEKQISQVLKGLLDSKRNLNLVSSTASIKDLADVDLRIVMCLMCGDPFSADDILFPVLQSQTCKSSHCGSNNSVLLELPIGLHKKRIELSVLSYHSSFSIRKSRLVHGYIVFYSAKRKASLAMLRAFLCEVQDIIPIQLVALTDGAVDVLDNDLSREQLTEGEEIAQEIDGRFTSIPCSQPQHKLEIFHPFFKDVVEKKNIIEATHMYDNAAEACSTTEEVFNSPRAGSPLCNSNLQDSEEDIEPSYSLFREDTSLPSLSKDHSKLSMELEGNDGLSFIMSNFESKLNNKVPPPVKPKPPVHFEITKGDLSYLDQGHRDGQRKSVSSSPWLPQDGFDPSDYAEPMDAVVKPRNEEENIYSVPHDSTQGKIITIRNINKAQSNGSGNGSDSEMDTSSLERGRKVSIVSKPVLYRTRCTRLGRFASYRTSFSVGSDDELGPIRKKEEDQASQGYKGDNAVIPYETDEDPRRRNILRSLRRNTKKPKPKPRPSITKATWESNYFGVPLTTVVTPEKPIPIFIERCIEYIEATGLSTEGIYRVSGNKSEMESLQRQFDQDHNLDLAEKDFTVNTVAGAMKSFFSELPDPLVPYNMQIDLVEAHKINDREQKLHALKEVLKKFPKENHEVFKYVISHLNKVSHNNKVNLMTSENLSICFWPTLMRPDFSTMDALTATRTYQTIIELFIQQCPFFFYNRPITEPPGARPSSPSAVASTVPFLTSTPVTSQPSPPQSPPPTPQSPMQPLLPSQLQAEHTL
# Some of the results follow.
# How the values were obtained:
# Experiment in all cases: log2 fold change, soluble protein after heating vs DMSO (PISA); higher = thermal stabilisation; K562 lysate, 10 uM; active = over 0.2 and 3.5 SD of the protein, either way, in both replicates (recomputed)
# erlotinib = compound: C#Cc1cccc(Nc2ncnc3cc(OCCOC)c(OCCOC)cc23)c1 [erlotinib]
# In short: (§1)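 Thermal stability, expressed as log-two fold change relative to solvent controls, is given from duplicates. Crude K562 extract in PBS pH 7.4 with 1 mM MgCl2, at 1 mg/mL protein, was treated with 10 μM compound for 30 min and heated in aliquots for 3 min across 48°C-58°C. After pooling, adjustment to 0.5% NP-40 at 4°C and centrifugation at 21,000xg for 90 min, supernatant protein was measured by TMTpro 16plex LC-MS/MS with channel sums equalised.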
# [1] = compound: C/C(=N\NC(=O)C1=CC(=CC=C1)S(=O)(=O)N2CCOCC2)/C3=C(C=CC(=C3)Cl)O
# In short: as §1
# [2] = compound: C1=CC(=CC=C1C2=NC3=C(N2)C=C(C=C3)C(=O)N)OC4=CC=C(C=C4)Cl
# In short: as §1
# [3] = compound: C1=CC2=C(C=CC(=C2)/C=C\3/C(=O)NC(=NCC4=CC=CS4)S3)N=C1
# In short: as §1
# [4] = compound: C1=CC2=NC=CN=C2C=C1/C=C/3\C(=O)NC(=O)S3
# In short: as §1
# [5] = compound: C1=CC=C(C=C1)C2=NC(=C(N2)C3=CC=NC=C3)C4=CC(=C(C=C4)Cl)O
# In short: as §1
# [6] = compound: C1=CC=C2C(=C1)C3=NNC4=CC=CC(=C43)C2=O
# In short: as §1
# [7] = compound: C1CCN(C1)C(=O)NC2=CC=CC(=C2)NC3=NC=C(C(=N3)NCCC4=CN=CN4)Br
# In short: as §1
# [8] = compound: C1CN(CCC1(CC2=CC=C(C=C2)Cl)N)C3=NC=NC4=C3C=CN4
# In short: as §1
# IRAK-1-4 Inhibitor I = compound: C1COCCN1CCN2C3=CC=CC=C3N=C2NC(=O)C4=CC(=CC=C4)[N+](=O)[O-] [IRAK-1-4 Inhibitor I]
# In short: as §1
Target,log2 fold change (erlotinib),log2 fold change [1],log2 fold change [2],log2 fold change [3],log2 fold change [4],log2 fold change [5],log2 fold change [6],log2 fold change [7],log2 fold change [8],log2 fold change (IRAK-1-4 Inhibitor I)
ARNT (UniProt P27540),inactive: 0.007,inactive: -0.199,inactive: 0.036,inactive: -0.019,inactive: -0.069,inactive: 0.021,inactive: -0.081,inactive: 0.005,inactive: 0.044,inactive: 0.017
APOL2 (UniProt J3KQL8),inactive: 0.042,inactive: -0.235,inactive: -0.045,inactive: -0.064,inactive: 0.012,inactive: 0.043,inactive: 0.189,inactive: 0.028,inactive: 0.057,inactive: 0.025
ARMC6 (UniProt Q6NXE6),inactive: 0.012,inactive: -0.026,inactive: -0.093,inactive: 0.022,inactive: 0.04,inactive: 0.006,inactive: -0.027,inactive: 0.021,inactive: -0.031,inactive: -0.005
APOBEC3B (UniProt Q9UH17),inactive: -0.086,inactive: 0.034,inactive: 0.146,inactive: 0.007,,inactive: 0.049,inactive: -0.038,inactive: 0.023,inactive: -0.09,inactive: -0.037
ARFIP2 (UniProt P53365),inactive: 0.011,inactive: -0.023,inactive: 0.063,inactive: 0.035,inactive: 0.027,inactive: 0.004,inactive: 0.01,inactive: -0.028,inactive: 0.03,inactive: 0.023
ARHGEF1 (UniProt M0QZR4),inactive: 0.018,inactive: 0.024,inactive: -0.023,inactive: 0.002,inactive: 0.027,inactive: 0.001,inactive: -0.041,inactive: -0.004,inactive: -0.022,inactive: -0.031
ARL6IP5 (UniProt O75915),inactive: -0.06,inactive: 0.013,inactive: -0.102,inactive: -0.043,inactive: 0.01,inactive: 0.013,inactive: 0.038,inactive: 0.019,inactive: -0.042,inactive: -0.024
ARPC1B (UniProt O15143),inactive: -0.007,inactive: 0.025,inactive: 0.004,inactive: 0.055,inactive: -0.016,inactive: 0.017,inactive: -0.031,inactive: 0.006,inactive: 0.005,inactive: -0.014
ARHGEF12 (UniProt Q9NZN5),inactive: -0.01,inactive: 0.022,inactive: 0.011,inactive: -0.019,inactive: -0.007,inactive: -0.006,inactive: 0.003,inactive: -0.018,inactive: -0.029,inactive: 0.004
ARIH2 (UniProt O95376),inactive: -0.004,inactive: -0.005,inactive: 0.04,inactive: -0.029,inactive: 0.007,inactive: -0.02,inactive: -0.015,inactive: 0.009,inactive: 0.04,inactive: -0.029
ASAP3 (UniProt Q8TDY4),inactive: 0.021,inactive: 0.025,inactive: 0.016,inactive: -0.048,inactive: -0.025,inactive: -0.004,inactive: -0.042,inactive: -0.001,inactive: 0.03,inactive: 0.013
APOBEC3D (UniProt Q96AK3),inactive: 0,inactive: -0.023,inactive: 0.041,inactive: -0.059,inactive: -0.054,inactive: 0.03,inactive: -0.023,inactive: -0.009,inactive: -0.014,inactive: -0.064
ARSK (UniProt Q6UWY0),inactive: -0.048,inactive: -0.096,inactive: -0.053,inactive: 0.018,,inactive: 0.122,inactive: 0.024,inactive: 0.09,inactive: -0.044,inactive: 0.02
ARL13B (UniProt Q3SXY8),inactive: 0.043,inactive: 0.06,inactive: -0.195,inactive: -0.039,inactive: 0.118,inactive: -0.033,inactive: 0.094,,,inactive: 0.038
ARHGDIA (UniProt P52565),inactive: -0.016,inactive: -0.055,inactive: 0.006,inactive: -0.033,inactive: -0.014,inactive: -0.004,inactive: 0.011,inactive: 0.007,inactive: 0.031,inactive: 0.005
APOBEC3F (UniProt Q8IUX4),inactive: 0.07,inactive: -0.054,inactive: -0.242,inactive: -0.01,inactive: -0.14,,inactive: -0.058,inactive: 0.008,inactive: 0.008,

# Not a retest: entries from further up.
Target,log2 fold change (erlotinib),log2 fold change [1],log2 fold change [2],log2 fold change [3],log2 fold change [4],log2 fold change [5],log2 fold change [6],log2 fold change [7],log2 fold change [8],log2 fold change (IRAK-1-4 Inhibitor I)
ARL6IP5 (UniProt O75915),inactive: -0.06,inactive: 0.013,inactive: -0.102,inactive: -0.043,inactive: 0.01,inactive: 0.013,inactive: 0.038,inactive: 0.019,inactive: -0.042,inactive: -0.024
ARPC1B (UniProt O15143),inactive: -0.007,inactive: 0.025,inactive: 0.004,inactive: 0.055,inactive: -0.016,inactive: 0.017,inactive: -0.031,inactive: 0.006,inactive: 0.005,inactive: -0.014

# Continuation:

Target,log2 fold change (erlotinib),log2 fold change [1],log2 fold change [2],log2 fold change [3],log2 fold change [4],log2 fold change [5],log2 fold change [6],log2 fold change [7],log2 fold change [8],log2 fold change (IRAK-1-4 Inhibitor I)
APLF (UniProt Q8IW19),inactive: 0.115,inactive: 0.034,inactive: -0.001,inactive: -0.032,inactive: 0.204,,inactive: 0.084,inactive: 0.043,inactive: -0.096,
ARHGAP17 (UniProt Q68EM7),inactive: 0.016,inactive: 0.017,inactive: -0.025,inactive: 0.022,inactive: 0.016,inactive: 0.019,inactive: -0.02,inactive: 0.036,inactive: 0.002,inactive: -0.005
ARHGAP45 isoform 2 (UniProt Q92619),inactive: 0.052,inactive: -0.027,inactive: 0.004,inactive: 0.03,inactive: 0.094,inactive: 0.056,inactive: -0.009,inactive: 0.038,inactive: 0.075,inactive: 0.022
ARL14EP (UniProt Q8N8R7),inactive: -0.014,inactive: -0.202,inactive: -0.002,inactive: 0.218,inactive: 0.084,inactive: 0.041,inactive: -0.053,,,inactive: -0.025
ARVCF (UniProt O00192),inactive: 0.07,inactive: -0.025,inactive: 0.111,inactive: 0.056,,inactive: 0.052,inactive: -0.047,inactive: -0.014,inactive: -0.093,inactive: 0.09
ARHGAP12 (UniProt Q8IWW6),inactive: 0.059,inactive: -0.043,inactive: 0.142,inactive: -0.028,inactive: -0.027,inactive: 0.007,inactive: -0.13,inactive: -0.017,inactive: 0.127,inactive: 0.046
APMAP (UniProt Q9HDC9),inactive: -0.038,inactive: 0.445,inactive: 0.004,inactive: -0.021,inactive: 0.008,inactive: -0.04,inactive: -0.019,inactive: 0.018,inactive: -0.018,inactive: 0.035
ARHGEF2 (UniProt Q92974),inactive: -0.006,inactive: -0.041,inactive: -0.014,inactive: -0.017,inactive: 0.002,inactive: 0.039,inactive: -0.007,inactive: -0.051,inactive: -0.018,inactive: -0.005
ARCN1 (UniProt P48444),inactive: -0.014,inactive: 0.043,inactive: 0.003,inactive: -0.009,inactive: -0.005,inactive: 0.001,inactive: 0.003,inactive: -0.024,inactive: -0.013,inactive: 0.004
ARHGEF18 (UniProt Q6ZSZ5),inactive: -0.007,inactive: 0.042,inactive: 0.025,inactive: -0.058,inactive: -0.016,inactive: 0.038,inactive: -0.05,inactive: -0.011,inactive: 0.048,inactive: -0.069
ARHGAP35 (UniProt Q9NRY4),inactive: 0.029,inactive: 0.01,inactive: -0.019,inactive: 0.034,inactive: -0.008,inactive: -0.002,inactive: -0.014,inactive: -0.01,inactive: 0.013,inactive: 0.016
ARMCX5 (UniProt Q6P1M9),inactive: -0.08,inactive: 0.047,inactive: -0.004,inactive: 0.157,inactive: 0.001,inactive: 0.03,active: -0.35,inactive: 0.075,inactive: -0.039,inactive: -0.08
ARMC10 (UniProt Q8N2F6),inactive: -0.002,inactive: 0.017,inactive: 0.009,inactive: 0.068,inactive: -0.03,inactive: -0.006,inactive: 0.007,inactive: -0.018,inactive: 0.006,inactive: 0.03
ARPP19 (UniProt H3BMD8),inactive: -0.022,inactive: -0.044,inactive: 0.036,inactive: 0.03,inactive: -0.001,inactive: 0.002,inactive: 0.003,inactive: -0.002,inactive: 0.049,inactive: 0.018
ARL1 (UniProt P40616),inactive: 0.006,inactive: -0.212,inactive: 0.037,inactive: -0.022,inactive: -0.03,inactive: -0.013,inactive: -0.018,inactive: -0.046,inactive: 0.025,inactive: 0.053
